Measurements from the supplement of paper PMC10849652.
This is one part of the list.

Sequences of proteins named here, by UniProt entry; tags and fusion partners are left off. A change or cut given only in a name is not applied to a line headed by its entry.
UniProt P49642: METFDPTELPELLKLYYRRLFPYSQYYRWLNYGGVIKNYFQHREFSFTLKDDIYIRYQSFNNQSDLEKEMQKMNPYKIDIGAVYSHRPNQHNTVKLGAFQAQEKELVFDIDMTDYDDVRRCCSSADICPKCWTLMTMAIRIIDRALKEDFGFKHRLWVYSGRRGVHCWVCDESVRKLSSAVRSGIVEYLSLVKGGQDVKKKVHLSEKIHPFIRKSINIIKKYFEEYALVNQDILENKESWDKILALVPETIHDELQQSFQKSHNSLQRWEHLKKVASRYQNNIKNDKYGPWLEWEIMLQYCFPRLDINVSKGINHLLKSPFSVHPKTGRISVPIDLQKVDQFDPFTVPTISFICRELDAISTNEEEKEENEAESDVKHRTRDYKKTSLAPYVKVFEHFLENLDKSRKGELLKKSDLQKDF
UniProt Q13523: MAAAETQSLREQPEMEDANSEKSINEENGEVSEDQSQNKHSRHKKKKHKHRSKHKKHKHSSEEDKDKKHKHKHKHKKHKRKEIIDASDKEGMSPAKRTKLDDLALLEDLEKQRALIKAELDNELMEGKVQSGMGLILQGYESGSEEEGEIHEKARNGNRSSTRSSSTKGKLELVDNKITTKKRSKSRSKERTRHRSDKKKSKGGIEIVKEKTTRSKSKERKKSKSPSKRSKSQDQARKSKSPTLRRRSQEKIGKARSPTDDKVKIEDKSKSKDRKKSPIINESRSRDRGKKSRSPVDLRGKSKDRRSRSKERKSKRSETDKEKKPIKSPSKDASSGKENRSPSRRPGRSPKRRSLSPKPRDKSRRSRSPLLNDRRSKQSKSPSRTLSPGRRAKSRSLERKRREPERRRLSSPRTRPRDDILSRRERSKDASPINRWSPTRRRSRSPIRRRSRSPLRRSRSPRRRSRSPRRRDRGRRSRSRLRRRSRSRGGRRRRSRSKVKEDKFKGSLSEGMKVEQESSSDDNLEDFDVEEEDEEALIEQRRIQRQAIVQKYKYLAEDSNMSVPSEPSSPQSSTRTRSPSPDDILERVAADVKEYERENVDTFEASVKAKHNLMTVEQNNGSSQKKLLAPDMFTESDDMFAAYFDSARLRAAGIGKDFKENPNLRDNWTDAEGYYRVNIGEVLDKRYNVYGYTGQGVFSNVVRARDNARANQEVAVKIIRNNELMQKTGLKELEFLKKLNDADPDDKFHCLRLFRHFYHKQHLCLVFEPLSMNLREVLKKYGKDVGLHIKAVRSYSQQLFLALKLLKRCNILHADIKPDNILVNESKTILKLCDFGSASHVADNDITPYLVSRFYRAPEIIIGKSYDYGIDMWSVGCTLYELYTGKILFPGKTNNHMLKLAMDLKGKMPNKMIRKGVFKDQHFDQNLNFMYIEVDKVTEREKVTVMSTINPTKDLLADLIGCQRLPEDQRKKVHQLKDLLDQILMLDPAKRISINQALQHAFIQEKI
UniProt Q05655: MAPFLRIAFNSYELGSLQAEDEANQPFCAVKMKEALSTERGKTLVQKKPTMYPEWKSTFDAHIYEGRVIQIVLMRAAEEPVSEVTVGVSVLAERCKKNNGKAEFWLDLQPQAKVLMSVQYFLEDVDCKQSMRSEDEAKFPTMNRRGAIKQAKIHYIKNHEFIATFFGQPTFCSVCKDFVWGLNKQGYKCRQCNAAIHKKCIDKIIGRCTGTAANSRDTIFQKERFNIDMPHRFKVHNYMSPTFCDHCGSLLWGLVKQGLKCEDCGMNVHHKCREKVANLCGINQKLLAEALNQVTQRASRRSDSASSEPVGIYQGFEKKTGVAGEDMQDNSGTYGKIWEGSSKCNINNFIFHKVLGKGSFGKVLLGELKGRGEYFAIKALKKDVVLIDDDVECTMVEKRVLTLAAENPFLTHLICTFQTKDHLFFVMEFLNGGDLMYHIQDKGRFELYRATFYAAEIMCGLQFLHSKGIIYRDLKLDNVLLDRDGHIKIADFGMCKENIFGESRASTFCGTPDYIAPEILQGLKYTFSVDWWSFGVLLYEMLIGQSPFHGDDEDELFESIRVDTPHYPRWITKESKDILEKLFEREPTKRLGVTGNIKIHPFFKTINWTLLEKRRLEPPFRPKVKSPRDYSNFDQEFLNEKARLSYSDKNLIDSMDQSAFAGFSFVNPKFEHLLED
UniProt Q96SB3: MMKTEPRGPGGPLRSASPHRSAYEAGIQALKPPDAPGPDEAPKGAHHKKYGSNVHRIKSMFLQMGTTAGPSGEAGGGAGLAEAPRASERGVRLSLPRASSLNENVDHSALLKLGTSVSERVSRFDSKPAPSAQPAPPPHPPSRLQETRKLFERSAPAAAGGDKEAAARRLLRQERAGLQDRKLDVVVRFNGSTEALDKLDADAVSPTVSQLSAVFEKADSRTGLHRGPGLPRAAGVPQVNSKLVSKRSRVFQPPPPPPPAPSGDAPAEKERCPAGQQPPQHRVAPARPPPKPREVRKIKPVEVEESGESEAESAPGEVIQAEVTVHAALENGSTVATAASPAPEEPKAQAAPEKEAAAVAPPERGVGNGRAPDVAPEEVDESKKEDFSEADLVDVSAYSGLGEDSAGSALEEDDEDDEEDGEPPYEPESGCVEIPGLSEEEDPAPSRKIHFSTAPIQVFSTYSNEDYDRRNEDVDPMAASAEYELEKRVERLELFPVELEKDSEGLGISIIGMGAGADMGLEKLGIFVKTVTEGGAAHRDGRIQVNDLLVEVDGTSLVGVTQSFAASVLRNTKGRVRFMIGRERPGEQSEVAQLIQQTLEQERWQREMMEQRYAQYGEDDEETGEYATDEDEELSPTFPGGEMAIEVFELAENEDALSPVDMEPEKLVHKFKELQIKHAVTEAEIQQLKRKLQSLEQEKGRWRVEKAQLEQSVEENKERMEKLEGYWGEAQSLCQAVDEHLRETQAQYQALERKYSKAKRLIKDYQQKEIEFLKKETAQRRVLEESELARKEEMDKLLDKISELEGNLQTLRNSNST
UniProt Q8WWY3: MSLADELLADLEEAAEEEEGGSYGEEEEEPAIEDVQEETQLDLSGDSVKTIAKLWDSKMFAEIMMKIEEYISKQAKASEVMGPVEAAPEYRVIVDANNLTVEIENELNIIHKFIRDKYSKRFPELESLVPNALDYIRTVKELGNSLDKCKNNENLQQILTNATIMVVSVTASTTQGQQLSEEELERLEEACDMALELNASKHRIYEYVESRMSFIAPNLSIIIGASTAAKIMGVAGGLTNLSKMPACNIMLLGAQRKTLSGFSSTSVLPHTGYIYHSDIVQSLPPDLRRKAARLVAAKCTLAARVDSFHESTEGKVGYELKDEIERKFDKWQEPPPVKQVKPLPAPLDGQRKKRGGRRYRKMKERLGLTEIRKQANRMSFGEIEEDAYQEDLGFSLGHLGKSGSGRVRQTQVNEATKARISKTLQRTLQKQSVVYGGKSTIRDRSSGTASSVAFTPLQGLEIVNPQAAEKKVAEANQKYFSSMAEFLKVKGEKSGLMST
UniProt Q96C90: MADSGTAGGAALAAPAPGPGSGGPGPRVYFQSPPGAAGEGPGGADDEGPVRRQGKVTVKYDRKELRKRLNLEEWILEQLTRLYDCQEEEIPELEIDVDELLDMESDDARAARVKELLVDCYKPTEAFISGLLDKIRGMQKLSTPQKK
UniProt Q13131: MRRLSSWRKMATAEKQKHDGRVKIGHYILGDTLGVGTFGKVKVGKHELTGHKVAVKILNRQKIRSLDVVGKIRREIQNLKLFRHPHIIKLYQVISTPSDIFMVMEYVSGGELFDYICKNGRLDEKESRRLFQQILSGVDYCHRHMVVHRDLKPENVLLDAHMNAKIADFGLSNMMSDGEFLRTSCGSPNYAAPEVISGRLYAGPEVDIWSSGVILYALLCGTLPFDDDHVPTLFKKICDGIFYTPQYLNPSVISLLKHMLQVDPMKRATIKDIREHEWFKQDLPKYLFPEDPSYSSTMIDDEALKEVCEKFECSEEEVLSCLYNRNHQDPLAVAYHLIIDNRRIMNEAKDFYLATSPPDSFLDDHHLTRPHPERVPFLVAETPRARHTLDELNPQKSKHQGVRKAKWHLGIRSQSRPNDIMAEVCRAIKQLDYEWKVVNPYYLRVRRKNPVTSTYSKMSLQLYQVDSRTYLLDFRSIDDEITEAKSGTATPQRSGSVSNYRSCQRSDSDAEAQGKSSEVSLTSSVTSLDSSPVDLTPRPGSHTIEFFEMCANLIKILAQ
UniProt Q9Y478: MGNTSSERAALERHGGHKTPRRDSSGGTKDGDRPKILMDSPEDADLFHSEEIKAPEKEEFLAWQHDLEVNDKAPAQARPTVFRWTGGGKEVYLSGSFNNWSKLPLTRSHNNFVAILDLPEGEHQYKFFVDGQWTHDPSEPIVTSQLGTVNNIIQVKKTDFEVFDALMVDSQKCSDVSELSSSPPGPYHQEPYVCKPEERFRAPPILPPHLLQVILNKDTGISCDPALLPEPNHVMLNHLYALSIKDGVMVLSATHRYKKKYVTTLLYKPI
UniProt Q15172: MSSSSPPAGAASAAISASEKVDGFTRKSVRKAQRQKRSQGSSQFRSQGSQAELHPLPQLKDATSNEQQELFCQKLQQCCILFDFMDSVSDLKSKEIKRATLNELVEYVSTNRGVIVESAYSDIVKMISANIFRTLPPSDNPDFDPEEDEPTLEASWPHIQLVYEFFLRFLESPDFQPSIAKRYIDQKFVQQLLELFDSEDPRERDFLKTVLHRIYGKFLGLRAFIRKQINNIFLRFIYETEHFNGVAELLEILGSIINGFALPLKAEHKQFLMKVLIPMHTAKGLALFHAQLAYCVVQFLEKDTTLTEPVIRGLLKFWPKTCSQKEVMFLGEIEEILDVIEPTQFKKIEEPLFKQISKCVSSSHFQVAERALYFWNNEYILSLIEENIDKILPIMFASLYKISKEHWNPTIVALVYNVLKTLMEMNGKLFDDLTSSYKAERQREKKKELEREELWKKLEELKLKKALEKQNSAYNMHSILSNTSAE
UniProt P50336: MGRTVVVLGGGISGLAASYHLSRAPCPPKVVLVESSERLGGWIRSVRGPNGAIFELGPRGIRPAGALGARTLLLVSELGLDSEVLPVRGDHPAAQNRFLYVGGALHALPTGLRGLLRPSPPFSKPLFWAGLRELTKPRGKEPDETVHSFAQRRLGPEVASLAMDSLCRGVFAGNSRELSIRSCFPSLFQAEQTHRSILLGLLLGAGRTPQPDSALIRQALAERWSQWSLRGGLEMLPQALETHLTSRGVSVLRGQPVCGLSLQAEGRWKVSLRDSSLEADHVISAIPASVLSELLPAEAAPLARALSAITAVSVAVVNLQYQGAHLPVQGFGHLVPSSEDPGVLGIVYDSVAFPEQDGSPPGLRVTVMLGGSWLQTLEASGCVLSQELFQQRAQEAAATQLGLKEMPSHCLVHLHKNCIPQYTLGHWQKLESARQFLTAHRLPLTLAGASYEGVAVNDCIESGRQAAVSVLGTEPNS
UniProt P13861, whole entry, looked up: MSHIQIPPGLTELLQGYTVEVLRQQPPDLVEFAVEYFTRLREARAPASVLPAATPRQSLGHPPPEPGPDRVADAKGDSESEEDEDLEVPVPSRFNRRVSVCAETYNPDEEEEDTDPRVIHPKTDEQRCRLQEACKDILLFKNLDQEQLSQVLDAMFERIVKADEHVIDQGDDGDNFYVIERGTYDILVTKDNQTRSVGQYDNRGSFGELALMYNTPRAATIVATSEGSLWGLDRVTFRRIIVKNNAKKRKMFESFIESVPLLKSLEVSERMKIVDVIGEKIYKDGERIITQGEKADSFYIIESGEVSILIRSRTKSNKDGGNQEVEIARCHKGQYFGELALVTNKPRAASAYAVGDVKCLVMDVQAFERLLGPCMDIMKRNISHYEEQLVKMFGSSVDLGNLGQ
UniProt Q86WR7: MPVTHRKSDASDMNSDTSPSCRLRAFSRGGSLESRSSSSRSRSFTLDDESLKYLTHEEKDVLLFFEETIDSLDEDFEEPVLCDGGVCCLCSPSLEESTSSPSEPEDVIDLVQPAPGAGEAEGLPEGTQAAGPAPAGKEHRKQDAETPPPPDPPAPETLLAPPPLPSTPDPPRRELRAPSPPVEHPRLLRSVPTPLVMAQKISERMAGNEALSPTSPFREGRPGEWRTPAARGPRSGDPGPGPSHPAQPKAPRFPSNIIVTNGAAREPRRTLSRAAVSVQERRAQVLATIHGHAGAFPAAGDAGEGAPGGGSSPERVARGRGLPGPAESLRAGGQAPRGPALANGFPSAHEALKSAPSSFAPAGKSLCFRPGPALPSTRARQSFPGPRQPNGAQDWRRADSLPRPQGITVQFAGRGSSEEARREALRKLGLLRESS
UniProt Q8NAV1: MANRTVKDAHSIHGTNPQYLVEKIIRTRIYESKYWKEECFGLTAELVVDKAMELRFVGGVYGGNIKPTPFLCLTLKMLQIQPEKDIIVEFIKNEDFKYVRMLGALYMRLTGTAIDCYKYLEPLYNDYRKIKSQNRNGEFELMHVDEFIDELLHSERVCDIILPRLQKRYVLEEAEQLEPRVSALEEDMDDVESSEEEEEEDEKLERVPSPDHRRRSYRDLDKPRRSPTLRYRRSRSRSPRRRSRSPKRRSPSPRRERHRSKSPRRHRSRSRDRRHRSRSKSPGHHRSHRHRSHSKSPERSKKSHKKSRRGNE

Key:
Experiment in all cases: log2 fold change, soluble protein after heating vs DMSO (PISA); higher = thermal stabilisation; K562 cells, 10 uM, 30 min; active = over 0.2 and 3.5 SD of the protein, either way, in both replicates (recomputed)
[1] = compound: CC1=C(C=C(C=C1)NC(=O)C2=CC(=CC=C2)C(C)(C)C#N)NC3=CC4=C(C=C3)N=CN(C4=O)C
In short: (§1)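 Soluble protein was defined as the supernatant after 21,000xg for 90 min. It came from K562 cells at 2×10^6 cells/mL given 10 μM compound for 30 min, heated in aliquots for 3 min across 48°C-58°C, pooled, and extracted in PBS with 0.5% NP-40 at 4°C, and was quantified by TMTpro 16plex LC-MS/MS with equalised channel sums. Thermal stability against control samples, from duplicates, is reported as log2 fold change.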

[2] = compound: CC1=C(C=C(C=C1)NC(=O)C2=CC(=CC=C2)N(C)C)NC(=O)C3=CC=C(C=C3)O
In short: as §1

[3] = compound: CC1=CC=C(C=C1)SC2=C3C=C(SC3=CN=C2)C(=O)N
In short: as §1

[4] = compound: CC1=NC(=CC=C1)C2=C(N=C(N2)C(C)(C)C)C3=CC4=NC=CN=C4C=C3
In short: as §1

[5] = compound: CCCCN(Cc1ccc(C(=O)NO)cc1)C(=O)Nc1ccccc1 [Nexturastat A]
In short: as §1

[6] = compound: CCCS(=O)(=O)Nc1ccc(F)c(C(=O)c2c[nH]c3ncc(-c4ccc(Cl)cc4)cc23)c1F [vemurafenib]
In short: as §1

[7] = compound: CCCS(=O)(=O)Nc1ccc(F)c(C(=O)c2c[nH]c3ncc(Cl)cc23)c1F
In short: as §1

[8] = compound: CCCc1cc(C)[nH]c(=O)c1CNC(=O)c1cc(-c2ccnc(N3CCN(C)CC3)c2)cc2c1cnn2C(C)C
In short: as §1

[9] = compound: CCN(CC)Cc1ccc2cc(COC(=O)Nc3ccc(C(=O)NO)cc3)ccc2c1 [givinostat]
In short: as §1

[10] = compound: CCN(CCCOc1ccc2c(Nc3cc(CC(=O)Nc4cccc(F)c4)[nH]n3)ncnc2c1)CCOP(=O)(O)O [barasertib]
In short: as §1

[11] = compound: CC[C@@H]1C(=O)N(C)c2cnc(Nc3ccc(C(=O)NC4CCN(C)CC4)cc3OC)nc2N1C1CCCC1
In short: as §1

[12] = compound: CC[C@@H]1C(=O)N(C)c2cnc(Nc3ccc(C(=O)N[C@H]4CC[C@H](N5CCN(CC6CC6)CC5)CC4)cc3OC)nc2N1C(C)C [volasertib]
In short: as §1

[13] = compound: CC[C@H](C)N1C=C(C2=C(C=C(C=C21)C3=CN=C(C=C3)N4CCNCC4)C(=O)NCC5=C(C=C(NC5=O)C)C)C
In short: as §1

[14] = compound: CC[C@H](C)[C@@H](C(=O)N[C@@H]([C@@H](C)O)C(=O)N[C@@H](CC(C)C)C(=O)[C@]1(CO1)C)NC(=O)[C@H]([C@@H](C)CC)N(C)C(=O)C [epoxomicin]
In short: as §1

[15] = compound: CCn1cc(-c2ccnc3[nH]c(-c4cccc(CN(C)C)c4)cc23)c(-c2ccc(NC(=O)N(C)C)cc2)n1
In short: as §1

[16] = compound: CN(C)CC(=O)Nc1ccc2[nH]c(=O)c3ccccc3c2c1
In short: as §1

[17] = compound: CN1C2=C(C3=C1C(=O)N(N=C3)CC4=CC(=CC=C4)N)SC(=C2)S(=O)C
In short: as §1

[18] = compound: CN1CCC(CNc2ccc3ncc(-c4cccc(OC(F)(F)F)c4)n3n2)CC1
In short: as §1

[19] = compound: CCn1c(C(=O)N(C2CC2)C2CC2)cc2c3c(ncn3C)c(Nc3cc(C)n(C)n3)nc21
In short: as §1

[20] = compound: CN(CCOC1=CC=C(C=C1)C[C@H]2C(=O)NC(=O)S2)C3=CC=CC=N3 (racemic) [rosiglitazone]
In short: as §1

Target | log2 fold change [1] | log2 fold change [2] | log2 fold change [3] | log2 fold change [4] | log2 fold change [5] | log2 fold change [6] | log2 fold change [7] | log2 fold change [8] | log2 fold change [9] | log2 fold change [10] | log2 fold change [11] | log2 fold change [12] | log2 fold change [13] | log2 fold change [14] | log2 fold change [15] | log2 fold change [16] | log2 fold change [17] | log2 fold change [18] | log2 fold change [19] | log2 fold change [20]
PRIM1 (UniProt P49642) | inactive: 0.02 | inactive: -0.083 | inactive: 0.061 | inactive: -0.004 | inactive: 0.162 | inactive: 0.042 | inactive: 0.1 | inactive: 0.074 | inactive: 0.031 | inactive: 0.056 | inactive: -0.097 | inactive: -0.249 | inactive: 0.093 | inactive: 0.088 | inactive: -0.018 | inactive: 0.117 | inactive: 0.052 | inactive: -0.12 | – | –
PRKACA (UniProt P17612) | inactive: -0.002 | inactive: -0.008 | inactive: -0.023 | inactive: 0.043 | inactive: 0.099 | inactive: 0.015 | inactive: 0.019 | inactive: -0.019 | inactive: 0.006 | inactive: -0.008 | inactive: -0.028 | inactive: -0.046 | inactive: 0.068 | inactive: -0.072 | inactive: -0.058 | inactive: 0 | inactive: -0.003 | inactive: 0.085 | – | –
PRPF4B (UniProt Q13523) | inactive: -0.024 | inactive: 0.018 | inactive: -0.079 | inactive: -0.082 | inactive: 0.158 | inactive: 0.052 | inactive: 0.03 | inactive: -0.098 | inactive: 0.082 | inactive: -0.05 | inactive: 0.025 | inactive: -0.17 | inactive: 0.027 | inactive: -0.174 | inactive: 0.104 | inactive: -0.049 | inactive: 0.081 | inactive: 0.019 | – | –
PPT1 (UniProt P50897) | inactive: -0.017 | inactive: 0.009 | inactive: 0.046 | inactive: 0.013 | inactive: -0.081 | inactive: 0 | inactive: -0.003 | inactive: -0.107 | inactive: -0.022 | inactive: -0.017 | active: -1.41 | active: -1.9 | inactive: -0.041 | inactive: 0.014 | inactive: 0.01 | inactive: -0.009 | inactive: -0.035 | active: -0.925 | – | –
PRKCD (UniProt Q05655) | inactive: -0.015 | inactive: -0.025 | inactive: -0.012 | inactive: -0.016 | inactive: -0.032 | inactive: 0.015 | inactive: 0.013 | inactive: -0.045 | inactive: -0.021 | inactive: 0.023 | inactive: 0.036 | inactive: -0.073 | inactive: 0.031 | inactive: -0.003 | inactive: -0.067 | inactive: -0.009 | inactive: -0.05 | inactive: -0.159 | – | –
PPP1R9B (UniProt Q96SB3) | inactive: -0.044 | inactive: 0.086 | inactive: -0.09 | inactive: -0.267 | inactive: 0.333 | inactive: -0.03 | inactive: 0.016 | inactive: 0.111 | inactive: 0.047 | inactive: -0.047 | inactive: 0.118 | inactive: -0.022 | inactive: -0.24 | inactive: -0.102 | inactive: -0.024 | inactive: -0.083 | inactive: 0.135 | inactive: -0.032 | inactive: -0.057 | inactive: -0.086
PRPF31 (UniProt Q8WWY3) | inactive: 0.021 | inactive: -0.12 | inactive: 0 | inactive: 0.067 | inactive: -0.01 | inactive: -0.017 | inactive: 0.087 | inactive: 0.106 | inactive: 0.065 | inactive: 0.096 | inactive: -0.113 | active: -0.548 | inactive: 0.172 | inactive: 0.049 | inactive: -0.079 | inactive: 0.181 | inactive: -0.041 | inactive: -0.348 | – | –
PPP1R14B (UniProt Q96C90) | inactive: -0.117 | inactive: 0.009 | inactive: 0.04 | inactive: 0.137 | inactive: 0.06 | inactive: 0.007 | inactive: -0.014 | inactive: -0.009 | inactive: -0.015 | inactive: 0.021 | inactive: -0.1 | inactive: 0.063 | inactive: 0.023 | inactive: -0.072 | – | inactive: 0.053 | inactive: -0.06 | – | inactive: 0.009 | inactive: -0.008
PRKAA1 isoform 2 (UniProt Q13131) | inactive: -0.029 | inactive: 0.001 | inactive: -0.001 | inactive: 0.02 | inactive: -0.042 | inactive: 0.025 | inactive: 0.008 | inactive: 0.021 | inactive: -0.014 | inactive: 0.016 | inactive: -0.035 | inactive: -0.154 | inactive: 0.04 | inactive: 0.017 | inactive: -0.052 | inactive: -0.007 | inactive: 0.001 | active: -0.254 | – | –
PRKCB isoform 2 (UniProt P05771) | inactive: 0.005 | inactive: -0.014 | inactive: -0.003 | inactive: 0.01 | inactive: -0.01 | inactive: 0.009 | inactive: -0.007 | inactive: 0.002 | inactive: 0.001 | inactive: 0.015 | inactive: -0.068 | active: -0.213 | inactive: 0.04 | inactive: 0.03 | inactive: -0.06 | inactive: 0.006 | inactive: -0.054 | inactive: -0.135 | – | –
PRMT3 (UniProt O60678) | inactive: 0.016 | inactive: -0.025 | inactive: 0.044 | inactive: 0.076 | inactive: -0.026 | inactive: 0.056 | inactive: 0.055 | inactive: 0 | inactive: -0.013 | inactive: 0.035 | inactive: -0.126 | active: -0.411 | inactive: 0.039 | inactive: 0.033 | inactive: -0.093 | inactive: 0.039 | inactive: -0.008 | active: -0.953 | – | –
PRKAB1 (UniProt Q9Y478) | inactive: -0.055 | inactive: 0.026 | inactive: 0.022 | inactive: 0.01 | inactive: -0.002 | inactive: 0.031 | inactive: 0.017 | inactive: 0.109 | inactive: 0.08 | inactive: 0.026 | inactive: -0.079 | active: -0.418 | inactive: 0.045 | inactive: 0.055 | inactive: -0.018 | inactive: 0.022 | inactive: -0.026 | inactive: -0.155 | – | –
PPP2R5A (UniProt Q15172) | inactive: -0.014 | inactive: -0.039 | inactive: 0.032 | inactive: 0.051 | inactive: -0.017 | inactive: 0.061 | inactive: 0.146 | inactive: -0.003 | inactive: 0.026 | inactive: 0.002 | inactive: -0.099 | active: -0.295 | inactive: 0.097 | inactive: 0.067 | inactive: -0.046 | inactive: 0.072 | inactive: -0.049 | active: -0.305 | – | –
PPOX (UniProt P50336) | inactive: 0.402 | inactive: -0.014 | inactive: 0.043 | inactive: 0.099 | inactive: -0.232 | inactive: 0.065 | inactive: 0.046 | inactive: 0.184 | inactive: -0.063 | inactive: 0 | inactive: -0.134 | inactive: -0.023 | inactive: -0.017 | inactive: -0.002 | inactive: -0.052 | inactive: 0.008 | inactive: -0.164 | active: -0.583 | – | –
PRKAR2A (UniProt P13861) | inactive: 0.141 | inactive: 0.001 | inactive: 0.011 | inactive: -0.033 | inactive: 0.008 | inactive: -0.021 | inactive: -0.021 | inactive: 0.019 | inactive: 0.024 | inactive: -0.001 | inactive: 0.03 | inactive: -0.024 | inactive: 0.046 | inactive: -0.031 | inactive: -0.033 | inactive: 0.047 | inactive: 0.077 | inactive: 0.023 | – | –
PROSER2 (UniProt Q86WR7) | inactive: -0.157 | inactive: -0.039 | inactive: 0.054 | inactive: 0.057 | inactive: 0.029 | inactive: -0.017 | inactive: -0.114 | inactive: -0.061 | inactive: -0.002 | inactive: 0.106 | inactive: -0.111 | inactive: -0.117 | inactive: 0.076 | inactive: 0.007 | inactive: 0.029 | inactive: 0.023 | inactive: 0.05 | inactive: -0.217 | inactive: -0.019 | inactive: 0.038
PRPF38A (UniProt Q8NAV1) | inactive: 0.005 | inactive: -0.023 | inactive: -0.058 | inactive: 0.017 | inactive: 0.019 | inactive: -0.118 | inactive: -0.089 | inactive: 0.065 | inactive: 0.005 | inactive: -0.024 | inactive: -0.029 | inactive: -0.016 | inactive: 0 | inactive: 0.048 | inactive: 0.031 | inactive: 0.051 | inactive: -0.037 | inactive: -0.081 | – | –

Shown comma-delimited: part of the list above.
Target,log2 fold change [1],log2 fold change [2],log2 fold change [3],log2 fold change [4],log2 fold change [5],log2 fold change [6],log2 fold change [7],log2 fold change [8],log2 fold change [9],log2 fold change [10],log2 fold change [11],log2 fold change [12],log2 fold change [13],log2 fold change [14],log2 fold change [15],log2 fold change [16],log2 fold change [17],log2 fold change [18],log2 fold change [19],log2 fold change [20]
PRKCD (UniProt Q05655),inactive: -0.015,inactive: -0.025,inactive: -0.012,inactive: -0.016,inactive: -0.032,inactive: 0.015,inactive: 0.013,inactive: -0.045,inactive: -0.021,inactive: 0.023,inactive: 0.036,inactive: -0.073,inactive: 0.031,inactive: -0.003,inactive: -0.067,inactive: -0.009,inactive: -0.05,inactive: -0.159,–,–
PPP1R9B (UniProt Q96SB3),inactive: -0.044,inactive: 0.086,inactive: -0.09,inactive: -0.267,inactive: 0.333,inactive: -0.03,inactive: 0.016,inactive: 0.111,inactive: 0.047,inactive: -0.047,inactive: 0.118,inactive: -0.022,inactive: -0.24,inactive: -0.102,inactive: -0.024,inactive: -0.083,inactive: 0.135,inactive: -0.032,inactive: -0.057,inactive: -0.086
